{"sequences": {"note": "By UniProt entry, the sequences of proteins in these tests, tags left out. Where a name states a change or a piece, a line headed by the entry shows the natural chain unless it says otherwise. Residues count along the entry.", "UniProt P09429, residues 1-185": "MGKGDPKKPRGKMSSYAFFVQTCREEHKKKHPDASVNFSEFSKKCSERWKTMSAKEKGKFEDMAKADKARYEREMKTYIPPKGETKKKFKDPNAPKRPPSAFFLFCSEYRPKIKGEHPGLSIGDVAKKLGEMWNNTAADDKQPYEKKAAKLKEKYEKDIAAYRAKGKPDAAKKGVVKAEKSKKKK", "UniProt P20333, residues 23-257": "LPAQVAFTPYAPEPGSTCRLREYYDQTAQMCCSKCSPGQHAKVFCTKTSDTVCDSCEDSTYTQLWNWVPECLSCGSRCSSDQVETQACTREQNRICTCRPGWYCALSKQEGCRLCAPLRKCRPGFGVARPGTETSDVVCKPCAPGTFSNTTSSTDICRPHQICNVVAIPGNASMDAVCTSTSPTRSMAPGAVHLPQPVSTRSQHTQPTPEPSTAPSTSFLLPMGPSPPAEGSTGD"}, "source": "paper PMC6016865", "biological_target": "Δ30 HMGB1 (lacking the C-terminal tail; residues 1–185) (human) (UniProt P09429)", "assay": "ELISA; plates coated with 40 nmol HMGB1 protein in PBS pH 7.2, 2 h 37 °C; blocked with 1% BSA; 0.2–1.25 μg/mL TLR2-Fc (or TNFR-Fc) in 1% BSA in PBS pH 7.2, 2 h; detected with anti-human IgG HRP and TMB; some samples treated with H2O2 or DTT; both purified", "note": "Results are given in words; binding and its absence hold for the method and conditions named.", "data": [{"substance": "Etanercept (TNFR-Fc; Pfizer) (from UniProt P20333 23-257) (Fc fusion)", "values": [{"measurement": "binding", "result": "no binding (tested: 0.2–1.25 μg/mL Etanercept)"}]}]}
